# Assay results from patent publication US20180216060A1 (ACADEMISCH ZIEKENHUIS LEIDEN (ALSO ACTING UNDER THE NAME OF …, priority 2015, published 2018).
# Experiment: general procedure: Fmoc solid-phase peptide synthesis; Rink amide resin; PyBOP
# Details: whole synthesis, scale 15 μmol
substance,measurement,value
Fmoc-Lys(Fmoc)-Thr(tBu)-Gly-Arg(Pmc)-Ala-Lys(Boc)-Arg(Pmc)-Arg(Pmc)-Met-Gln(Trt)-Tyr(tBu)-Ans(Trt)-Arg(Pmc)-Arg(Pmc),crude mass,35 mg
same,isolated mass,16 mg
same,isolated yield,36%
